In the odorant receptor screen of Mainland et al. (2015) one finds odorant receptor activation data, which are given here for 26 compounds.

Assay in all cases: odorant receptor activation (CRE luciferase / Renilla) (fold of no-odor wells); higher = more activation
Holding throughout (conditions): 100 µM

In assay [1] the test system is OR4F15 clone 1074.
For assay [2], the system named is OR4F15 clone 1434.
For assay [3], the system named is OR4F16 clone 1060.
For assay [4], the system named is OR4F17 clone 1161.
Assay [5] has as its system OR4F21 clone 1580.
Assay [6] deals with OR4F4 clone 1556.
In assay [7] the test system is OR4F5 clone 1557.
The test system of assay [8] is OR4F6 clone 1058.
In assay [9] the test system is OR4F6 clone 1537.
Assay [10] deals with OR4K1 R89H clone 1269.

Where “and” joins values, the source holds several entries; their conditions need not be identical. Equal values may be shown once. The list shows a part of the results. Each value is one well over the wells without odorant, computed here; the data are noisy.

As to `CC1CCC(C(C)C)C(O)C1` (single isomer, unassigned; (-)) [(-)-menthol], the odorant receptor activation is 2.6 in [1]; 1.49 in [2]; 3.14 in assay [3]; 1.2 in assay [4]; 0.983 in assay [5]; 1.57 in assay [6]. Moreover, the odorant receptor activation in assay [7] was determined as 1.64; in [8] it was 3.36; in [9], 3.08; in [10] it was 0.854.
For `CC(C)=CCCC(C)=CC=O` [citral], the odorant receptor activation was determined as 1.08 in [1]; 0.204 in assay [2]; 0.969 in [3]; 1.22 in assay [4]; 0.908 in assay [5]; 1.77 in [6]. Moreover, the odorant receptor activation was 1.02 in assay [7], 1.02 in assay [8], 1.17 in assay [9] and 1.42 in assay [10].
Consider `CC(=O)OC1CC2CCC1(C)C2(C)C` (stereo not given) [isobornyl acetate], for which the odorant receptor activation in assay [1] came to 1.1; in [2] it was 1.06; in assay [3], 0.544; in assay [4], 1.3; in [5], 0.69; in assay [6], 1.32. Further, the odorant receptor activation in assay [7] was 1.48; in assay [8], 0.983; in assay [9] it was 1.24 and 1.05; in [10] it was 1.05 and 0.568.
`CC(C)CCC(=O)O` [4-methylvaleric acid]: the odorant receptor activation in assay [1] is 1.85; in assay [2] it was 1.44; in assay [3], 1.95; in assay [4] it was 1.5; in [5], 0.694; in assay [6], 1.25. The odorant receptor activation came out at 1.53 in [7], 1.66 in assay [8], 0.936 in [9] and 1.27 in assay [10].
Consider `CC(=O)C(C)=O` [diacetyl], for which the odorant receptor activation in assay [1] was 0.864; in assay [2] it was 1.22; in assay [3] it was 0.935; in [4] it was 1.1; in assay [5], 0.574; in [6] it was 0.931. Moreover, the odorant receptor activation in [7] worked out at 0.966; in assay [8], 1.07; in assay [9] it was 1.61; in [10], 0.993.
Take `CCCCCC(=O)O` [caproic acid]: the odorant receptor activation came out at 1.06 in [1]; 0.172 in [2]; 0.873 in [3]; 1.05 in assay [4]; 1.03 in assay [5]; 0.971 in assay [6]. Further, the odorant receptor activation in assay [7] was 1; in assay [8], 0.937; in assay [9], 1.04; in [10] it was 1.04.
Take `CC(=O)OCC=C(C)CCC=C(C)C` [geranyl acetate]: the odorant receptor activation in assay [1] came to 2.59; in [2], 0.994; in assay [3], 2.6; in assay [4], 1.22; in assay [5], 1.2; in [6] it was 1.37. Also, the odorant receptor activation in assay [7] is 1.27; in [8], 2.64; in assay [9], 0.969 and 1.54; in assay [10], 0.883 and 1.04.
Consider `CC(C)C(=O)O` [isobutyric acid], for which the odorant receptor activation in [1] is 1.17; in [2], 0.879; in [3] it was 0.657; in assay [4] it was 1.41; in assay [5] it was 0.606; in assay [6], 1.01. Besides, the odorant receptor activation was 1.23 in assay [7]; 0.993 in [8]; 1.03 and 0.839 in [9]; 1.11 and 0.569 in assay [10].
Take `CC1=CCC(C(C)(C)O)CC1` (stereo not given) [terpineol]: the odorant receptor activation came to 0.928 in assay [1]; 0.997 in assay [2]; 0.982 in assay [3]; 1.2 in assay [4]; 1.1 in [5]; 2.48 in assay [6]. In addition, the odorant receptor activation was determined as 0.979 in assay [7], 1.21 in [8], 0.911 in [9] and 0.81 in assay [10].
In the case of `CC(=O)OC(C)(C)C1CC=C(C)CC1` (stereo not given) [terpinyl acetate], the odorant receptor activation in [1] worked out at 1.77; in assay [2] it was 0.937; in [3], 1.4; in assay [4], 1.68; in assay [5], 1.13; in assay [6], 2.94. The odorant receptor activation in assay [7] came out at 1.52; in assay [8] it was 1.25; in assay [9] it was 1.1; in assay [10] it was 0.77.
With `CCCCCCCCCCC=O` [undecanal], the odorant receptor activation in [1] worked out at 1.09; in assay [2], 1.16; in assay [3], 1.06; in [4], 1.1; in [5], 1.05; in [6], 2.81. Further, the odorant receptor activation in [7] was found to be 1.22; in assay [8] it was 1.11; in [9] it was 1.06; in assay [10] it was 0.776.
Take `CC(C)CC(=O)O` [isovaleric acid]: the odorant receptor activation amounted to 0.925 in [1]; 0.855 in assay [2]; 1.13 in assay [3]; 1.15 in assay [4]; 0.74 in assay [5]; 1.01 in assay [6]. Also, the odorant receptor activation in assay [7] came to 1.22; in assay [8], 0.887; in assay [9] it was 0.879; in assay [10], 0.827.
On to `CCCCO` [1-butanol], for which the odorant receptor activation in assay [1] was 4.31; in [2] it was 1.66; in assay [3], 2.75; in assay [4], 1.2; in assay [5], 0.765; in [6], 1.34. Moreover, the odorant receptor activation came out at 1.53 in [7], 3.69 in assay [8], 1.12 in assay [9] and 1.3 in [10].
As to `CCCCCCCOC(C)=O` [heptyl acetate], the odorant receptor activation worked out at 1.24 in assay [1]; 1.02 in assay [2]; 0.561 in [3]; 0.649 in assay [4]; 0.714 in assay [5]; 0.683 in [6]. The odorant receptor activation in assay [7] is 0.895; in assay [8] it was 1.13; in assay [9] it was 1.11 and 1.05; in assay [10], 0.893 and 0.937.
For the compound `CC12CCC(C1)C(C)(C)C2=O` (stereo not given) [fenchone], the odorant receptor activation in assay [1] worked out at 0.781; in [2], 0.936; in assay [3] it was 1.06; in assay [4], 0.884; in assay [5], 0.647; in assay [6], 0.621. Also, the odorant receptor activation in assay [7] was determined as 0.915; in assay [8], 1.23; in assay [9], 1.18; in assay [10] it was 1.12.
Turning to `C=CCc1ccc(OC(C)=O)c(OC)c1` [eugenol acetate], the odorant receptor activation in assay [1] came out at 1.3; in assay [2] it was 1.75; in assay [3] it was 1.59; in assay [4] it was 1.45; in assay [5], 1.97; in assay [6], 2.12. The odorant receptor activation is 2.48 in assay [7], 1.72 in assay [8], 1.87 in assay [9] and 1.63 in assay [10].
Regarding `C=CCSCC=C` [diallyl sulfide], the odorant receptor activation came to 0.821 in assay [1]; 1.01 in assay [2]; 0.823 in assay [3]; 1.02 in [4]; 0.692 in assay [5]; 0.859 in [6]. Besides, the odorant receptor activation in assay [7] amounted to 1.17; in assay [8], 0.976; in [9] it was 1.5; in assay [10], 1.01.
Regarding `CCCCCCCCOC(C)=O` [octyl acetate], the odorant receptor activation in assay [1] is 0.984; in [2], 0.697; in assay [3], 0.988; in assay [4] it was 1.14; in assay [5], 0.963; in [6], 0.925. For the same compound, the odorant receptor activation in [7] came out at 1.02; in assay [8] it was 1.01; in assay [9], 0.887; in assay [10], 1.07.
For the compound `CCCCCCCC=CC=O` [2-decenal], the odorant receptor activation in assay [1] was found to be 4.49; in [2], 1.54; in [3], 6.43; in assay [4], 1.56; in [5], 1.07; in assay [6], 1.65. Further, the odorant receptor activation in [7] was determined as 1.88; in [8] it was 5.67; in assay [9] it was 1.42; in assay [10] it was 2.12.
In the case of `O=C1CCCCCCCCCCCC(=O)OCCO1` [ethylene brassylate], the odorant receptor activation in assay [1] was determined as 1.05; in assay [2], 1.88; in assay [3] it was 1.4; in [4], 1.47; in assay [5] it was 0.862; in assay [6], 1.04. Further, the odorant receptor activation turned out to be 1.35 in [7], 1.52 in assay [8], 1.17 in [9] and 1.69 in [10].
As for `c1cnccn1` [pyrazine], the odorant receptor activation was determined as 1.29 in [1]; 1.07 in assay [2]; 1.07 in [3]; 1.05 in assay [4]; 0.896 in assay [5]; 0.872 in assay [6]. Besides, the odorant receptor activation was found to be 0.859 in [7], 1.1 in [8], 1 in assay [9] and 0.689 in assay [10].
In the case of `CCCCCCCCC=O` [nonyl aldehyde], the odorant receptor activation in assay [1] is 0.916; in assay [2] it was 0.893; in assay [3], 0.955; in [4] it was 1.02; in assay [5] it was 1.25; in [6], 1.02. Moreover, the odorant receptor activation in assay [7] is 0.999; in [8], 1.12; in assay [9], 1; in assay [10] it was 0.796.
As to `CCCCCOC(C)=O` [n-amyl acetate], the odorant receptor activation in assay [1] was determined as 1.63; in [2] it was 0.644; in [3], 1.41; in [4] it was 0.817; in assay [5] it was 1.17; in assay [6], 2.47. Further, the odorant receptor activation in assay [7] was 1.08; in assay [8], 1.99; in [9] it was 0.696 and 0.727; in [10], 0.914.
Consider `c1ccc(Oc2ccccc2)cc1` [diphenyl ether], for which the odorant receptor activation is 0.836 in [1]; 1.02 in [2]; 0.86 in assay [3]; 0.875 in assay [4]; 0.627 in assay [5]; 0.902 in assay [6]. The odorant receptor activation in [7] was determined as 1.06; in assay [8], 0.958; in assay [9] it was 1.54; in assay [10] it was 0.959.
In the case of `COc1cc(C)ccc1O` [2-methoxy-4-methylphenol], the odorant receptor activation in [1] was 1.88; in assay [2] it was 1.62; in assay [3], 1.91; in assay [4], 1.3; in assay [5] it was 0.833; in [6] it was 1.44. Further, the odorant receptor activation in assay [7] worked out at 1.63; in assay [8] it was 2.22; in assay [9], 0.85; in assay [10], 0.89.
`COC(=O)c1ccccc1O` [methyl salicylate]: the odorant receptor activation in assay [1] worked out at 1.03; in [2] it was 0.995; in [3] it was 1.12; in assay [4] it was 0.705; in assay [5] it was 0.686; in assay [6] it was 1.02. The odorant receptor activation amounted to 0.981 in assay [7], 1.2 in [8], 1.16 in assay [9] and 0.764 in assay [10].
